In publication PMC6946680, “Modulation of brain cation-Cl^− cotransport via the SPAK kinase inhibitor ZT-1a” (Nature Communications, 2020):
Where “and” joins values, the source holds several entries; their conditions need not be identical. Equal values may be shown once.

Assays:
KCC3 = assay: 86Rb+ uptake assay for KCC3 activity in HEK-293 cells; format: cell-based, human; set-up: key to 86Rb+ uptake: 86Rb+ uptake CPM normalized per mg protein (10-min uptake); conditions: for 86Rb+ uptake: Fig 3a, KCC3 wt + Furo (1 mM), replicates
HEK-293 cells = assay: 86Rb+ uptake assay in empty-vector-transfected HEK-293 cells; format: cell-based, human; set-up: key: 86Rb+ uptake in CPM per mg protein; conditions: Fig 3a, Empty V + Furo (1 mM), ouabain + bumetanide, replicates

In the case of `NS(=O)(=O)c1cc(C(=O)O)c(NCc2ccco2)cc1Cl` [furosemide, reference compound], the “K+ flux (86Rb+ uptake) of cells transfected with empty vector or KCC3 wt cDNA” value (KCC3; 1 mM furosemide, n = 3) is reported as “significantly decreased K^+ flux”, the “86Rb+ uptake” value (KCC3; Hypotonic low Cl-) is reported as 497.9 and 459.2 and 631.9 and 539.1 and 604.9 and 546.4 and the “86Rb+ uptake” value (KCC3; Isotonic control) is reported as 873.2 and 629.5 and 994.7 and 699.2 and 901.5 and 768.9. For the same molecule, the “86Rb+ uptake” value (HEK-293 cells; Hypotonic low Cl-) was 189.8 and 174.8 and 155.2 and 147.3 and 136.5 and 163.3 and the “86Rb+ uptake” value (HEK-293 cells; Isotonic control) was 234.2 and 198.6 and 207.4 and 167.8 and 253.1 and 208.5.
